According to PubChem BioAssay AID1259415 (National Center for Advancing Translational Sciences (NCATS), 2018):
Out of some 410,000 compounds screened, about 18,000 (4.4%) were called active. This list was built around the results that the source calls inconclusive (neither active nor inactive); the mix of calls is not that of the screen. No stated cut-off is given here; in the data, active means activity change below about -60%; inconclusive means no clear call, values can overlap the other calls; inactive means above about -39%.

Experiment: qHTS Assay for inhibitors of the human cytomegalovirus (HCMV)
Details: HFF cells, HCMV-luciferase reporter, 72 h; at 57.5 µM; stronger effect = lower value
Outline: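 Two-dose cell screen: HFF monolayers treated with compounds and infected with luciferase-expressing HCMV at 1 PFU/cell, 72 h at 37C, then lysed for luciferase measurement.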
On the % scale 0 is the no-effect control and ±100 the full control effect.

Compound | activity change, negative = inhibition
CCNC(=O)C1(C)CCCN(Cc2ccc(-c3ccccn3)cc2)C1 (stereo not drawn) | active: -100%
O=C(C1CCC(=O)N(C2CCCCCC2)C1)N1CCN(c2ccccc2Cl)CC1 (stereo not drawn) | inconclusive: -54.4%
CCCCOc1ccc(S(=O)(=O)N2CCN(c3ccccc3OCC)CC2)cc1 | inactive: 16.7%
COc1cc(C(O)P(=O)(OC2CCCCC2)c2ccc(N(C)C)cc2)cc(OC)c1OC (stereo not drawn) | inactive: -18%
O=C1CN(CC(=O)NC(=O)NCc2ccccc2)CCN1 | inactive: -35.2%
Cc1ccc(Cl)cc1N1CCN(C(=O)c2ccc3c(c2)N(Cc2ccccc2F)C(=O)c2ccccc2S3(=O)=O)CC1 | inconclusive: -48.8%
O=C(NCC(c1ccccc1)c1ccccc1)c1nn(-c2ccccc2Cl)nc1CO | active: -92.4%
O=C(NCC1CCCO1)C1CCN(C2CCN(Cc3ccco3)CC2)CC1 (stereo not drawn) | inconclusive: -46.1%
Cn1c(=O)[nH]c2ncn(C)c2c1=O | inconclusive: -52.2%
CCCC(O)(c1ccc(Cl)cc1)C(CN1CCOCC1)c1ccc(Cl)cc1 (stereo not drawn) | inactive: -20.9%
Cc1[nH]c2ccccc2c1/C=N/Nc1nc(N2CCCCC2)nc(N2CCCCC2)n1 | inconclusive: -45.4%
Cc1cc(CNC(=O)CC2C(=O)NCCN2Cc2ccccc2)nn1C (stereo not drawn) | inactive: 8.75%
O=C(CSc1ncn[nH]1)c1ccc(OC(F)F)cc1 | inconclusive: -41%
CNc1ccc(Br)cc(C(=O)/C=C/c2cc(OC)ccc2OC)c1=O | active: -102%
Cc1cccc(N2CCN(C(=O)CC(NC(=O)c3ccccc3Cl)c3ccccc3)CC2)c1C (stereo not drawn) | inconclusive: -47.2%
O=C(NCCc1ccccn1)c1cc(-c2ccc(Cl)c(Cl)c2Cl)nc2ccccc12 | inconclusive: -48.8%
Cc1ccccc1C1NC(c2ccccc2C)C([N+](=O)[O-])C(C)(C)C1[N+](=O)[O-] (stereo not drawn) | inconclusive: -58%
O=c1[nH]c(=S)[nH]c(O)c1N=Nc1ccc2c(c1)OCCO2 | inconclusive: -57.5%
O=S(=O)(Nc1ccccc1C(F)(F)F)c1ccc(-c2ccccn2)s1 | inactive: -16%
Cc1ccc(CNC(=O)c2csc3c2CCCCC3)cc1 | inactive: -28.9%
Nc1c(-c2ccc(F)c(F)c2)nc2ncccn12 | inactive: -19.1%
COc1cc(C(=O)NC2CCCCC2)ccc1OCc1ccc(Cl)cc1Cl | inconclusive: -54.8%

Ordered by formula weight (ascending): 4 of the compounds above
Compound | activity change, negative = inhibition
Cc1cc(CNC(=O)CC2C(=O)NCCN2Cc2ccccc2)nn1C (stereo not drawn) | inactive: 8.75%
CCCC(O)(c1ccc(Cl)cc1)C(CN1CCOCC1)c1ccc(Cl)cc1 (stereo not drawn) | inactive: -20.9%
O=C(C1CCC(=O)N(C2CCCCCC2)C1)N1CCN(c2ccccc2Cl)CC1 (stereo not drawn) | inconclusive: -54.4%
Cc1[nH]c2ccccc2c1/C=N/Nc1nc(N2CCCCC2)nc(N2CCCCC2)n1 | inconclusive: -45.4%

Continuation:

Compound | activity change, negative = inhibition
COC(=O)Cc1c(C)c2ccc(OC3CCCCC3=O)c(C)c2oc1=O (stereo not drawn) | inconclusive: -58%
O=C(CCCOC(=O)c1ccc(O)cc1O)c1ccc(F)cc1 | inconclusive: -48.6%
CC(=O)Nc1cccc(OCC(O)Cn2c(C)nc3ccccc32)c1 (stereo not drawn) | inconclusive: -53.9%
Cn1c(/C=C/c2ccc(Cl)cc2)c([N+](=O)[O-])c(=O)n(C)c1=O | active: -98.2%
CCOc1cc(CNC(C)C(O)c2ccccc2)cc(Cl)c1OCC (stereo not drawn) | inactive: 79.4%
FC(F)(F)c1cc(-c2cccs2)nc(-n2cc(Cl)cn2)n1 | inactive: -3.4%
Nc1ccc(Cc2ccc(N)c(O)c2)cc1O | inconclusive: -46.3%
Clc1cccc(N2CCN(CCCN3CCN(c4ccccc4)CC3)CC2)c1 | inconclusive: -50.8%
CC1(C)CC(=O)C2=C(C1)N(Cc1ccco1)C(=O)NC2(C(F)(F)F)C(F)(F)F | inconclusive: -42.3%
Cc1ccc(C(=O)NCC(=O)N/N=C/c2sccc2C)cc1[N+](=O)[O-] | inconclusive: -47.3%
CC1(C)CC(=O)C2=C(C1)N(c1ccc(F)cc1)C(=O)CC2c1ccsc1 (stereo not drawn) | inactive: -34.4%
Cc1cccc(N2CCN(S(=O)(=O)c3ccc4c(c3)NC(=O)C(C)S4)CC2)c1C (stereo not drawn) | active: -78.6%
CC(=O)CCN1CCSCCS1(=O)=O | inactive: 4.21%
Cc1ccccc1CCN(CC(=O)NCc1ccc(F)cc1)C(=O)c1csnn1 | inconclusive: -47.8%
CCOc1ccc(N2CC(C(=O)NCCN3C(=O)S/C(=C\c4ccc(OC)cc4)C3=O)CC2=O)cc1 (stereo not drawn) | inconclusive: -48.7%
O=c1[nH]cnc2c1sc1nc3c(c(-c4ccc(Cl)cc4)c12)CCC3 | inconclusive: -52.6%
Cc1cc(C)n(-c2nc3c(c(=O)[nH]c(=O)n3C)n2CCc2ccccc2)n1 | inactive: 7.55%
O=C(Cc1cccc2ccccc12)N/N=C/c1ccc(OC(=O)/C=C/c2ccco2)cc1 | inconclusive: -50.5%
CCOc1ccc(CCN2C(=S)N([C@@H](Cc3ccc(O)cc3)CN3CCC[C@@H]3CN3C(=S)NC[C@@H]3Cc3ccc(O)cc3)C[C@@H]2Cc2ccc(O)cc2)cc1 | inactive: -26.4%
CSc1ncc(C(=O)Nc2cccc(C)c2C)c(C)n1 | inactive: -38.5%
CC(=O)c1c(C(C)=O)c(C)n(C2CCCCC2)c1C | inconclusive: -49%
COc1cc(OC)c(OC)cc1NC(=O)CC1COc2ccccc2O1 (stereo not drawn) | inactive: 58.4%

Compound | activity change, negative = inhibition
CC(=O)Nc1cnc(-c2ccccc2C(F)(F)F)cn1 | inconclusive: -40.7%
O=C(Cc1ccccc1)Nc1ccc(N2CCOCC2)cc1N1CCOCC1 | inactive: 7.29%
O=C(O)c1ccc(NC(=O)c2cn(-c3ccccc3)nc2-c2ccc(F)cc2)cc1 | inactive: 19.4%
O=C(NCc1ccccc1Cl)C1CCN(S(=O)(=O)c2cccs2)CC1 | inconclusive: -46%
Nc1nonc1-c1nc2ccccc2n1Cc1ccc(F)cc1 | inconclusive: -51.1%
Cc1ccc(CNC(=O)Cn2ccn(-c3ccc(C)c(C)c3)c(=O)c2=O)cc1 | inconclusive: -49%
O=C(/C=C/c1ccco1)NCC1OCCc2ccccc21 (stereo not drawn) | inconclusive: -40.2%
O=C(/C=C/c1ccco1)NCC(=O)N/N=C/c1ccc(Cl)cc1 | inconclusive: -48.6%
Cc1ccc(-n2nc3c(N4CCCC(C(=O)NCCc5ccccc5)C4)nnc(C)c3c2C)cc1 (stereo not drawn) | inconclusive: -53.3%
CCc1ccc(-c2nc(CCl)cs2)cc1 | inconclusive: -45.9%
CCCN1C(=O)C2(c3ccccc31)c1c(oc3ccc(C)cc3c1=O)C(=O)N2CCOC (stereo not drawn) | inactive: 9.41%
Cc1ccc(NC(=O)c2ccc(CSc3nccc(C)n3)cc2)cc1 | inconclusive: -48.3%
Nc1nc2cc3c(cc2cc1C(=O)NCCc1c[nH]c2ccccc12)OCO3 | inconclusive: -49.4%
COc1cc(C=O)c(Br)cc1OCC(=O)NCCc1ccccc1 | inconclusive: -41.8%
Cc1ccccc1OCCN1CCC(Cc2ccccc2)CC1 | inconclusive: -45.8%
O=C(Nc1ccc(Cl)cc1)Nc1ccc(Cl)c(C(F)(F)F)c1 | active: -99.1%
COC(=O)CN1C(=O)[C@H]2[C@@H](c3ccc(C)o3)N3C(=O)CN(Cc4ccccc4)C(=O)[C@@]3(C)[C@H]2C1=O | active: -83.1%
Cc1cnc(C(=O)Nc2cccc3cccnc23)cn1 | active: -89.1%
COc1ccc(NC(=O)CN2CCN(c3ccccc3)CC2)cc1 | inconclusive: -45.5%
CCCC(=O)NC(c1ccc(Cl)cc1Cl)c1ccc2cccnc2c1O (stereo not drawn) | active: -105%
O=C(Nc1ccc(F)cc1)Nc1ccccc1F | inconclusive: -47.3%
O=C(CCN1C(=O)/C(=C/c2ccccc2)SC1=S)NNC(=O)c1ccncc1 | inconclusive: -42.2%

Compound | activity change, negative = inhibition
Cc1cc(NC(=O)CSc2nc3ccccc3c(=O)n2C2CCCC2)no1 | active: -62.2%
COc1ccccc1Sc1nc(-c2ccccn2)ncc1OC | inconclusive: -59.1%
O=c1c2cnn(-c3ccc(F)cc3)c2ncn1Cc1ccc(F)cc1 | inconclusive: -43.4%
Cc1cccc(NC(=O)Cc2ccc(-n3c(C)nc4cccnc43)cc2)c1C | inconclusive: -45.1%
O=C(NCc1cccnc1)c1ccccc1[N+](=O)[O-] | inconclusive: -49.6%
COc1ccc(-c2nnc(-c3ccc(N)cc3)o2)cc1 | inactive: 74.4%
COc1ccccc1NC(CC(=O)c1ccccc1)C(=O)OCC(=O)c1ccc(C)cc1 (stereo not drawn) | inactive: 67.1%
Cc1cccc(NC(=O)c2ccc(N(C)C3CCCCC3)c([N+](=O)[O-])c2)n1 | inconclusive: -42.2%
CCCc1c(C)nc2c(Br)cccc2c1Cl | inconclusive: -48.9%
Cc1cc(N2CCN(C(=O)c3ccco3)CC2)n2nc(-c3cccc(Cl)c3)cc2n1 | active: -101%
Cc1ccccc1Nc1nc(Nc2ccccc2C)nc(SC2=NCCS2)n1 | inconclusive: -47.5%
Cc1ccc(N(CC(=O)Nc2ccc(C)cn2)S(=O)(=O)c2c(C)nn(C)c2C)cc1 | inconclusive: -51.3%
CC(C)(C)C(=O)NC(=S)NCc1ccccc1 | inconclusive: -47.2%
Cc1ccc(C(=O)NC(c2ccccc2)C(Cl)Cl)cc1 (stereo not drawn) | inconclusive: -44.1%
Cc1ccc(N=C2CCCN2Cc2ccccc2)c(C#N)c1 | inconclusive: -44.3%
C=CCN1C[C@H](C)N(C(c2ccc(C(=O)N(CC)CC)cc2)c2cccc(OC)c2)CC1C (stereo partly drawn) | active: -65.3%
CCc1ccc(-c2cc(C)no2)cc1S(=O)(=O)NCCc1ccc(S(N)(=O)=O)cc1 | inconclusive: -46.7%
CC(C)NC(=O)N(C)C[C@H]1Oc2c(NC(=O)C3CC3)cccc2C(=O)N([C@H](C)CO)C[C@@H]1C | inconclusive: -54.7%
CC(C)c1ccc(NC(=O)C2(C)Cc3ccccc3C(=O)O2)cc1 (stereo not drawn) | inactive: 34.2%
CCOC(=O)c1c(-c2ccccc2Cl)cn2ccccc12 | inconclusive: -45.8%
CC(NS(=O)(=O)/C=C/c1ccccc1)c1ccccc1 (stereo not drawn) | inconclusive: -44.5%
CCC(CC)COC(=O)C(C#N)c1nc2ccccc2nc1N1CCOCC1 (stereo not drawn) | inconclusive: -54.2%

Copied from the list:
Value for O=C1CN(CC(=O)NC(=O)NCc2ccccc2)CCN1 under activity change, negative = inhibition: inactive: -35.2%
Value for Cc1ccc(-n2nc3c(N4CCCC(C(=O)NCCc5ccccc5)C4)nnc(C)c3c2C)cc1 (stereo not drawn) under activity change, negative = inhibition: inconclusive: -53.3%
